Molecules are shown by their SMILES. Some of the results follow.

The test system of the experiment is T1, CTL2-GFP (C. trachomatis L2/434/Bu, GFP-expressing).
T1 construct: L2/434/Bu, GFP-expressing
On the set-up: species or system HeLa; Intracellular C. trachomatis growth in HeLa cells, bulk GFP fluorescence relative to DMSO. The settings on record: bulk GFP, single well; 28.5 h, 10 µM; inhibitor.
In the case of `Cc1csc(NC(=O)CSc2ccc3nnc(-c4ccccc4)n3n2)n1` [CBK287517], the “% of control remaining” value is recorded as 119.967%.
To `CC(C)C(=O)Nc1cccc(NC(=O)COc2ccc(Br)cc2)c1` [CBK265211] belongs 115.081%; to `O=S(=O)(c1ccc(F)cc1)N1CCCC1c1cccc(Cc2cccc(F)c2)n1` (centres unmarked) [CBK286209], 114.618%; to `C/C(=N\NC(=O)c1cccc(Cl)c1)c1ccccc1O` [CBK261665], 59.7872%.
To `COc1ccc2c(c1)CCc1sc(NS(=O)(=O)c3cccc(Cl)c3C)nc1-2` [CBK200033] belongs 82.4095%.
As for `Nc1nc(-c2ccccc2)c(C(=O)Nc2ccccc2)s1` [CBK058068], the “% of control remaining” value was found to be 42.2566%.
To `Cc1cc(C)c2c(c1)-c1c(ssc1=S)C(C)(C)N2C(=O)CSc1nncn1C` [CBK263035] belongs 86.1778%; to `COc1ccc(-n2nc(C)c3onc(C)c3c2=O)cc1` [CBK000853], 104.308%.
Under `S=C(NCc1ccco1)Nc1nn(Cc2ccc(Cl)cc2Cl)cc1Cl` [CBK267021] stands 157.34%; under `CC(C)c1cc(C(=O)N(Cc2ccccn2)CC2CCCO2)on1` (centres unmarked) [CBK306579], 143.243%; under `COc1ccc(-c2nc(CCN)n3ccccc23)cc1` [CBK035583], 113.332%.
Under `CCNC(=O)N[C@H]1[C@H](O)[C@@H](N(CC)CC)[C@@H]2OC[C@H]1O2` [CBK288816] stands 121.045%; under `Fc1ccc2[nH]c3c(c2c1)CCN1C(c2ccncc2)N2CCC31CC2` (centres unmarked) [CBK284437], 136.09%.
For the molecule `Nc1cc2ccccc2c(-c2ccc3c(c2)OCCCO3)n1` [CBK085722], the “% of control remaining” value is listed as 110.719%.
To `CCOC(=O)N1CCC(NC(=O)N2CCCC(CO)C2)CC1` (centres unmarked) [CBK156345] belongs 118.771%.
Under `COc1ccc2ncc3c(c2c1)NCCNC3=O` [CBK291168] stands 161.201%.
To `COc1ccccc1-c1cnccc1-n1ccnc1` [CBK177153] belongs 134.095%; to `CC(=O)N1CC[C@H](c2nc3cccc(C(N)=O)c3[nH]2)C1` [CBK289415], 156.952%; to `Nc1ncncc1-c1noc([C@@H]2CCCN2c2ncccn2)n1` [CBK288901], 108.799%.
Regarding `O=[N+]([O-])c1ccc(/C=C/c2nn3c(Cn4cnc5ccccc54)nnc3s2)cc1` [CBK268273], the “% of control remaining” value is 119.113%.
To `COCC1CCCN(Cc2cn(C)nc2C(C)(C)C)C1` (centres unmarked) [CBK304818] belongs 97.7336%.
Under `O=[N+]([O-])c1ccc(CN2CCN(Cc3c[nH]c4ccccc34)CC2)cc1` [CBK218620] stands 100%; under `O=C(NCc1cccnc1)c1ncoc1-c1cccs1` [CBK283974], 165.132%.
To `CC1CCCCN1S(=O)(=O)c1ccc(-n2ncc(Cl)c(Cl)c2=O)cc1` (centres unmarked) [CBK305035] belongs 66.003%.
As to `CO[C@@]12CC[C@H](OCC(=O)O)C[C@@H]1N(Cc1c(C)cnn1C)CC2` [CBK306638], the “% of control remaining” value was determined as 120.618%.
Under `COc1ccc(CNC(=O)c2cc(S(=O)(=O)N3CCCCC3)cs2)cc1` [CBK307590] stands 115.543%; under `CCCN(C(=O)CCn1c(=O)oc2cc(Cl)ccc21)C1CCNC1` (centres unmarked) [CBK304311C], 98.0651%; under `CNC(=O)CSc1nccc(C(F)(F)F)n1` [CBK107759], 93.8992%.
Under `COc1ccc(C(C)C)cc1-c1cnc(N)c(N2CCOCC2)n1` [CBK063384] stands 146.802%.
To `CC(=O)N1c2ccccc2C(C)(c2ccc(Br)cc2)CC1(C)C` (centres unmarked) [CBK026461] belongs 18.3713%.
Turning to `O=c1c2cn[nH]c2nc(SCc2ccc3c(c2)OCCO3)n1-c1ccccc1` [CBK266593], the “% of control remaining” value amounted to 126.555%.
Regarding `OC1(Cn2cnc3ccccc32)CCN(Cc2ccc(F)cc2)CC1` [CBK284661], the “% of control remaining” value came to 133.651%.
To `CN(C)C(=S)Oc1ccc2[nH]c3c(c2c1)CCNC31CCN(CCOc2ccccc2)C1` (centres unmarked) [CBK105748] belongs 116.757%; to `COc1ccccc1NC(=O)N1C[C@@H]2C[C@H](C1)c1c(-c3cccs3)ccc(=O)n1C2` [CBK289191], 79.6173%; to `O=c1[nH]nc2c(Sc3cccc(F)c3)nccn12` [CBK288508], 87.987%.
Turning to `CCn1cnnc1SCC(=O)Nc1ccc(CN2CCOCC2)cc1` [CBK305072], the “% of control remaining” value came to 127.894%.
Under `Cc1cccc(Nc2nc(N)nc(CSc3nccn3C)n2)c1` [CBK266105] stands 105.617%.
Under `CC(Cc1ccccn1)NC(=O)c1cc(-c2ccccc2F)no1` (centres unmarked) [CBK281421] stands 123.875%.
For `CSc1nc2ccc(S(=O)(=O)N3CCCC3)cc2s1` [CBK268400], the “% of control remaining” value stood at 105.671%.
Under `CCCCc1cc(=O)oc2cc(OCC(=O)O)ccc12` [CBK264205] stands 116.873%; under `CN(C)CCCNc1oc(/C=C/c2cccs2)nc1C#N` [CBK269317], 153.917%; under `Cc1cccc(OCC2CCCN(C(=O)NCCc3cnn(C)c3)C2)c1` (centres unmarked) [CBK307358], 131.386%.
To `CC(=O)NC[C@H]1CN(c2ccc3c(c2)CCSC3)C(=O)O1` [CBK018505] belongs 7.8756%.
Under `COc1cccc(CN2CCN(CCc3ccccc3)CC2)c1` [CBK126454] stands 108.792%.
`CCCc1ccc(S(=O)(=O)Nc2ccc(C(=O)N(CC)CC)cc2)cc1` [CBK034403]: the “% of control remaining” value is 90.9018%.
To `CS(=O)(=O)N1CCc2c([nH]c3ccccc23)C12CCN(Cc1ccccc1)C2` (centres unmarked) [CBK059460] belongs 109.205%; to `Cc1ccc(S(=O)(=O)NC2c3cccc4cccc(c34)C2Sc2nnc(N)s2)cc1` (centres unmarked) [CBK265835], 147.371%; to `O=C(CCNc1n[nH]c(=O)[nH]c1=O)N/N=C\c1ccccc1F` [CBK263093], 100%.
To `Cc1ccc(-c2csc3ncnc(NCCCc4n[nH]c(N)c4C#N)c23)cc1` [CBK297100] belongs 122.569%; to `CC(OC(=O)c1ccc(O)cc1)C(=O)Nc1ccc(Cl)c(Cl)c1` (centres unmarked) [CBK264281], 94.1245%.
To `Cc1csc(Sc2nc3ccccc3nc2C(F)(F)F)n1` [CBK093775] belongs 122.925%; to `NC1=NNC2=C(c3ccc(F)cc3)NNN12` [CBK093659], 106.314%; to `O=C(CN1CCOCC1)Nc1c2c(nc3ccccc13)N(c1ccccc1)CC2` [CBK111136G], 108.319%.
In the case of `COc1ccc(Cl)cc1C(=O)O/N=C(\N)Cc1cccc2ccccc12` [CBK266275], the “% of control remaining” value was 119.765%.
Under `CCn1nc(C)c(-c2cncn2CCCOc2cccc(C)c2)c1C` [CBK281997] stands 144.583%.
Under `Cc1cc(-c2cn3ccnc3c(NC3CC3)n2)cc(C)c1O` [CBK066747] stands 87.7036%; under `CN1CCN(CCOC(=O)N2CCSCC2)CC1` [CBK200288], 109.851%.
To `O=C(O)c1cc(S(=O)(=O)Nc2ccc(F)cc2)c(Cl)cc1Cl` [CBK113685] belongs 107.468%; to `CCN1CCN(C(=O)c2ccc3nc(-c4ccccc4)c(-c4ccccc4)nc3c2)CC1` [CBK269090], 149.273%; to `O=C1Nc2ccc(-c3ccc4c(c3)OCO4)cc2C(=O)N2CCN(C(=O)CO)C[C@H]12` [CBK289593], 107.634%.
`CCC1CCCCN1C(=O)c1ccc(C)c(Cl)c1` (centres unmarked) [CBK082756]: the “% of control remaining” value was determined as 79.8484%.
Take `O=C(NCc1ccc2c(c1)OCO2)N1CCCCC1CO` (centres unmarked) [CBK156166]: the “% of control remaining” value was 113.453%.
To `Cc1cc(C(F)(F)F)nn1CCNC(=O)c1cn2ccsc2n1` [CBK307260] belongs 94.9562%; to `CC(=O)Nc1ccc(-c2cc(Nc3ccc(NC(=O)c4ccc(N)cc4)cc3)ncn2)cc1` [CBK091103], 118.817%.
`COc1ccc(CCN(C(C)=O)C2CC(=O)N(c3ccccc3)C2=O)cc1OC` (centres unmarked) [CBK262349]: the “% of control remaining” value came out at 123.6%.
To `O=C(NCc1ccc(Cl)cc1)C1CCCN1c1nc(O)cc(C(F)(F)F)n1` (centres unmarked) [CBK003706] belongs 114.15%; to `CC(C)Nc1cc(SCc2cccc(C(F)(F)F)c2)ncn1` [CBK107161], 110.114%; to `CCOc1ccc(NC(c2ccccc2)c2cc3cc(OC)ccc3[nH]c2=O)cc1` (centres unmarked) [CBK286157], 104.489%.
To `O=C(O)c1ccc2c(c1)C(=O)N(Cc1cccc(CN3C(=O)c4ccc(C(=O)O)cc4C3=O)c1)C2=O` [CBK265556] belongs 101.7%.
To `CCn1nc(C)c(-c2cncn2CCCN2CCCCC2)c1C` [CBK281769] belongs 155.286%.
As to `O=C(NC(c1cccnc1)c1ccc2c(c1)OCO2)C1CCN(CCc2cccs2)CC1` (centres unmarked) [CBK148503], the “% of control remaining” value was 112.826%.
As for `Cc1cc2ccccc2n2c(=O)n(CC(=O)N3CCCCC3)nc12` [CBK283878], the “% of control remaining” value stood at 140.663%.
`Cc1nn(Cc2ccccc2)c(C)c1CNC(=O)c1nc(Cl)ccc1Cl` [CBK297928]: the “% of control remaining” value is given as 122.003%.
Under `CCOc1nc(NCCC2=CCCCC2)nc(OCC)n1` [CBK027387] stands 110.419%.
Under `CCCCN(C)c1c(C)nc2c(OCc3ccc(S(=O)(=O)N(C)C)cc3)cccn12` [CBK147189] stands 108.029%; under `CC(NS(=O)(=O)c1ccc(CCC(=O)N2CCN(C)CC2)cc1)c1ccccc1` (centres unmarked) [CBK266868], 152.637%.
To `NC(=O)CN1CCCN(c2ccnc(OCC3COc4ccccc4O3)n2)CC1` (centres unmarked) [CBK083236T] belongs 106.846%.
Turning to `COc1cccc(CNc2ccc(N3CCCCC3)cc2)c1OCc1cccs1` [CBK074531], the “% of control remaining” value was 52.6596%.
To `O=C(NCc1ccncc1)c1csc2c(C(F)(F)F)cc(N3CCN(Cc4ccccc4)CC3)nc12` [CBK034294T] belongs 98.1982%.
Consider `Cc1nc(O)cc(C2CCN(C(=O)c3csc4c3CCCC4)CC2)n1` [CBK307618], for which the “% of control remaining” value was determined as 99.6554%.
